Laboratory results: PubChem BioAssay AID1259308 (NCATS, 2017)
This is an unselected part of about 59,000 deposited reagents. About 1,510 of them (2.6%) were called active. 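Calls use total luciferase alone and ignore viability, so some active siRNAs may act by altering cell number.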 The numbers tell different reagents against one gene apart. No sequences are given here.

Assay: 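Knock-downs that increase output of a recombinant reporter protein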 (primary screen)
System: human HEK293 embryonic kidney cells stably expressing firefly luciferase (HEK-CMV-Luc2-Hygro)
Knock-down reagent: single siRNA against human genes, 0.8 pmol siRNA per well
Timing: 72 h
Measurement: 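Luciferase light (ONE-Glo) measured on one replicate plate set and viability (CellTiter-Glo) on the other, scaled to a negative control siRNA, with robust z-scores and luciferase per cell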
Direction: total luciferase, z-score and total luciferase, % of control: higher = more reporter protein produced; luciferase per cell, z-score: higher = more reporter output per viable cell; viable cells, % of control: higher = more viable cells
Active means: 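An siRNA counts as active if its total luciferase robust z-score exceeds 3; genes with two or more such siRNAs out of three were retested with fresh siRNAs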
Meaning of the calls: active = raised luciferase; inactive = no rise

Target gene | reagent | total luciferase, z-score | total luciferase, % of control | luciferase per cell, z-score | viable cells, % of control | call
TMEM92 (GeneID 162461) | 1 | 0.516 | 92.2 | 0.677 | 86.2 | inactive
TMEM92 (GeneID 162461) | 2 | 0.937 | 101 | 0.641 | 94.9 | inactive
TMEM92 (GeneID 162461) | 3 | 0.198 | 85.8 | 0.0619 | 94.4 | inactive
CLEC12B (GeneID 387837) | 1 | 0.3 | 87.9 | 1.57 | 65 | inactive
CLEC12B (GeneID 387837) | 2 | -0.287 | 76.2 | -0.274 | 91.5 | inactive
CLEC12B (GeneID 387837) | 3 | -0.856 | 64.9 | -0.925 | 92.4 | inactive
CHAT (GeneID 1103) | 1 | 1 | 102 | 0.557 | 98.3 | inactive
CHAT (GeneID 1103) | 2 | 6.07 | 203 | 3.27 | 95.6 | active
CHAT (GeneID 1103) | 3 | -0.369 | 74.6 | 0.9 | 65.7 | inactive
TMEM120B (GeneID 144404) | 1 | 1.08 | 103 | 1.11 | 86.2 | inactive
TMEM120B (GeneID 144404) | 2 | -0.329 | 75.3 | -0.425 | 94.2 | inactive
TMEM120B (GeneID 144404) | 3 | 2.15 | 125 | 2.34 | 75.3 | inactive
LYRM2 (GeneID 57226) | 1 | 0.356 | 89 | -0.339 | 109 | inactive
LYRM2 (GeneID 57226) | 2 | 1.11 | 104 | 0.292 | 108 | inactive
LYRM2 (GeneID 57226) | 3 | 1.37 | 109 | 0.564 | 105 | inactive
MRPS11 (GeneID 64963) | 1 | -0.0229 | 81.4 | 0.226 | 85.7 | inactive
MRPS11 (GeneID 64963) | 2 | 0.208 | 86 | -0.404 | 107 | inactive
MRPS11 (GeneID 64963) | 3 | 0.342 | 88.7 | 0.522 | 86.4 | inactive
DGKA (GeneID 1606) | 1 | -0.125 | 79.4 | -0.379 | 98.1 | inactive
DGKA (GeneID 1606) | 2 | -1.34 | 55.1 | 1.08 | 46.3 | inactive
DGKA (GeneID 1606) | 3 | -0.0649 | 80.6 | 1.26 | 64.6 | inactive
BCL2 (GeneID 596) | 1 | -0.629 | 69.4 | -0.513 | 88.7 | inactive
BCL2 (GeneID 596) | 2 | -1.28 | 56.5 | -1.3 | 88.9 | inactive
BCL2 (GeneID 596) | 3 | -0.317 | 75.6 | -1.12 | 113 | inactive
HAUS2 (GeneID 55142) | 1 | -0.675 | 68.5 | -0.752 | 93.3 | inactive
HAUS2 (GeneID 55142) | 2 | -0.392 | 74.1 | -0.245 | 88.3 | inactive
HAUS2 (GeneID 55142) | 3 | 0.365 | 89.2 | 0.673 | 83.4 | inactive

Only “viable cells, % of control” (11 entries from above):
TMEM92 (GeneID 162461) #3	94.4
CLEC12B (GeneID 387837) #1	65
CLEC12B (GeneID 387837) #2	91.5
CLEC12B (GeneID 387837) #3	92.4
CHAT (GeneID 1103) #1	98.3
CHAT (GeneID 1103) #2	95.6
CHAT (GeneID 1103) #3	65.7
TMEM120B (GeneID 144404) #1	86.2
TMEM120B (GeneID 144404) #2	94.2
TMEM120B (GeneID 144404) #3	75.3
LYRM2 (GeneID 57226) #1	109

Further records follow.
Target gene | reagent | total luciferase, z-score | total luciferase, % of control | luciferase per cell, z-score | viable cells, % of control | call
TBK1 (GeneID 29110) | 1 | 1.02 | 102 | 1.29 | 81.2 | inactive
TBK1 (GeneID 29110) | 2 | 0.249 | 86.8 | 0.685 | 81 | inactive
TBK1 (GeneID 29110) | 3 | 0.79 | 97.6 | 0.701 | 90.7 | inactive
AP3M1 (GeneID 26985) | 1 | 0.73 | 96.4 | 0.215 | 102 | inactive
AP3M1 (GeneID 26985) | 2 | -0.206 | 77.8 | -0.0188 | 87.4 | inactive
AP3M1 (GeneID 26985) | 3 | -1.26 | 56.9 | -1.18 | 86.8 | inactive
H1-0 (GeneID 3005) | 1 | -0.214 | 77.6 | -0.102 | 89.1 | inactive
H1-0 (GeneID 3005) | 2 | 0.511 | 92 | -0.0799 | 105 | inactive
H1-0 (GeneID 3005) | 3 | 1.38 | 109 | 1.97 | 72.6 | inactive
NAPB (GeneID 63908) | 1 | -0.43 | 73.3 | -0.431 | 91.8 | inactive
NAPB (GeneID 63908) | 2 | 0.94 | 101 | 2.09 | 64.8 | inactive
NAPB (GeneID 63908) | 3 | -0.331 | 75.3 | -0.261 | 90.1 | inactive
CCDC167 (GeneID 154467) | 1 | -1.77 | 46.6 | -2.01 | 88.4 | inactive
CCDC167 (GeneID 154467) | 2 | 3.91 | 160 | 2.5 | 92.4 | active
CCDC167 (GeneID 154467) | 3 | 0.29 | 87.7 | 0.885 | 77.6 | inactive
MSANTD4 (GeneID 84437) | 1 | 0.0374 | 82.6 | -0.571 | 107 | inactive
MSANTD4 (GeneID 84437) | 2 | -0.0497 | 80.9 | -0.751 | 110 | inactive
MSANTD4 (GeneID 84437) | 3 | -0.323 | 75.5 | -0.839 | 105 | inactive
PTCHD1 (GeneID 139411) | 1 | -1.91 | 43.9 | -1.33 | 69.7 | inactive
PTCHD1 (GeneID 139411) | 2 | 0.476 | 91.4 | 0.594 | 87.3 | inactive
PTCHD1 (GeneID 139411) | 3 | 0.59 | 93.6 | 0.245 | 98.1 | inactive
RDH8 (GeneID 50700) | 1 | -0.322 | 75.5 | 0.897 | 66.6 | inactive
RDH8 (GeneID 50700) | 2 | 0.0836 | 83.5 | 0.27 | 87 | inactive
RDH8 (GeneID 50700) | 3 | 2.86 | 139 | 2.54 | 79.3 | inactive
RPEL1 (GeneID 729020) | 1 | -0.524 | 71.5 | -0.814 | 99 | inactive
RPEL1 (GeneID 729020) | 2 | 1.17 | 105 | 0.982 | 90.7 | inactive
RPEL1 (GeneID 729020) | 3 | -0.238 | 77.2 | -0.821 | 107 | inactive
RPEL1 (GeneID 729020) | 4 | -1.93 | 43.5 | -0.882 | 61.3 | inactive
RPEL1 (GeneID 729020) | 5 | -0.941 | 63.2 | 1.38 | 49.1 | inactive
RPEL1 (GeneID 729020) | 6 | -1.55 | 51.1 | -1.31 | 80.5 | inactive
SERPINA10 (GeneID 51156) | 1 | -1.25 | 57 | -1.05 | 83.9 | inactive
SERPINA10 (GeneID 51156) | 2 | 0.00174 | 81.9 | -0.565 | 106 | inactive
SERPINA10 (GeneID 51156) | 3 | -0.119 | 79.5 | 1.29 | 63.2 | inactive
COL4A2 (GeneID 1284) | 1 | 0.228 | 86.4 | 0.133 | 93.2 | inactive
COL4A2 (GeneID 1284) | 2 | 2.08 | 123 | 1.76 | 86.6 | inactive
COL4A2 (GeneID 1284) | 3 | -1.3 | 56.1 | -0.905 | 79.5 | inactive
FLNA (GeneID 2316) | 1 | 1.16 | 105 | 1.01 | 89.9 | inactive
FLNA (GeneID 2316) | 2 | -1.14 | 59.2 | -0.13 | 68.5 | inactive
FLNA (GeneID 2316) | 3 | 0.759 | 97 | 0.65 | 91.3 | inactive
IZUMO4 (GeneID 113177) | 1 | 0.869 | 99.2 | 1.09 | 83.2 | inactive
IZUMO4 (GeneID 113177) | 2 | -0.249 | 76.9 | 1.16 | 63.4 | inactive
IZUMO4 (GeneID 113177) | 3 | 0.459 | 91 | 0.818 | 82 | inactive
ZNF37BP (GeneID 100129482) | 1 | -1.4 | 54 | -1.14 | 81.5 | inactive
ZNF37BP (GeneID 100129482) | 2 | 0.0901 | 83.7 | -0.293 | 101 | inactive
ZNF37BP (GeneID 100129482) | 3 | 0.396 | 89.8 | 0.303 | 92.6 | inactive
LHX5 (GeneID 64211) | 1 | -0.164 | 78.6 | 1.37 | 61.3 | inactive
LHX5 (GeneID 64211) | 2 | -1.07 | 60.5 | -0.121 | 69.9 | inactive
LHX5 (GeneID 64211) | 3 | -1.45 | 53.1 | -1.53 | 88.8 | inactive
